Reference: patent US5646244A, “Cyclodepsipeptide compound” (priority 1993, dated 1997)
Part of at least one peptide drawing is inferred or uncertain, most often the ends.

Legend:
[1] = system: heart worm (Dirofilaria immitis) microfilaria; parameters: species or system dogs; conditions: dog, in vivo, po, 100 mg/kg
[2] = system: free-living nematode (Rhabditis elongtus); experiment: Growth inhibiting effect on a free-living nematode, loss of motility on agar (Test 3); format: cell-based; conditions: minimum concentration of test solution (1 ml dripped onto 10 ml agar) which eliminated motility; 25° C., 24 hours
[3] = system: Nippostrongylus brasilienses; experiment: Anthelmintic effect in rats infected with Nippostrongylus brasilienses (Test 1); format: in vivo, Wistar strain rats; conditions: oral on 7th, 8th and 9th day after infection, parasites in small intestine counted on 11th day, reduction vs unadministered control

| SMILES | Number of microfilaria in 1 ml blood, after administration 1 hrs. [1] | Number of microfilaria in 1 ml blood, after administration 1 day [1] | Number of microfilaria in 1 ml blood, after administration 2 day [1] | Number of microfilaria in 1 ml blood, after administration 7 day [1] | Number of microfilaria in 1 ml blood, before administration 18 hrs. [1] | Minimum effective concentration [2] | Minimum Amount of Administration indicated by more than 85% of Reduction Rate [3] |
| --- | --- | --- | --- | --- | --- | --- | --- |
| COc1ccc(C[C@H]2OC(=O)[C@H](CC(C)C)N(C)C(=O)[C@@H](C)OC(=O)[C@H](CC(C)C)N(C)C(=O)[C@@H](C)OC(=O)[C@H](CC(C)C)N(C)C(=O)[C@@H](C)OC(=O)[C@H](CC(C)C)N(C)C2=O)cc1 [Example 3] | 8,133 | 6,917 | 8,000 | 17 | 12,300 | 1000 µg/mL |  |
| CC(C)C[C@H]1C(=O)O[C@H](C)C(=O)N(C)[C@@H](CC(C)C)C(=O)O[C@H](Cc2ccc(N3CCOCC3)cc2)C(=O)N(C)[C@@H](CC(C)C)C(=O)O[C@H](C)C(=O)N(C)[C@@H](CC(C)C)C(=O)O[C@H](C)C(=O)N1C [Example 2] |  |  |  |  |  | 1000 µg/mL |  |
| CC(C)C[C@H]1C(=O)O[C@H](C)C(=O)N(C)[C@@H](CC(C)C)C(=O)O[C@H](Cc2ccc(N(C)C)cc2)C(=O)N(C)[C@@H](CC(C)C)C(=O)O[C@H](C)C(=O)N(C)[C@@H](CC(C)C)C(=O)O[C@H](C)C(=O)N1C [Example 1] | 56,583 | 17 | 33 | 180 | 109,217 | 500 µg/mL | 5 mg/kg |
